From paper PMC11148184

By UniProt entry, the sequences of proteins in these tests, tags left out.
UniProt Q6P3S6: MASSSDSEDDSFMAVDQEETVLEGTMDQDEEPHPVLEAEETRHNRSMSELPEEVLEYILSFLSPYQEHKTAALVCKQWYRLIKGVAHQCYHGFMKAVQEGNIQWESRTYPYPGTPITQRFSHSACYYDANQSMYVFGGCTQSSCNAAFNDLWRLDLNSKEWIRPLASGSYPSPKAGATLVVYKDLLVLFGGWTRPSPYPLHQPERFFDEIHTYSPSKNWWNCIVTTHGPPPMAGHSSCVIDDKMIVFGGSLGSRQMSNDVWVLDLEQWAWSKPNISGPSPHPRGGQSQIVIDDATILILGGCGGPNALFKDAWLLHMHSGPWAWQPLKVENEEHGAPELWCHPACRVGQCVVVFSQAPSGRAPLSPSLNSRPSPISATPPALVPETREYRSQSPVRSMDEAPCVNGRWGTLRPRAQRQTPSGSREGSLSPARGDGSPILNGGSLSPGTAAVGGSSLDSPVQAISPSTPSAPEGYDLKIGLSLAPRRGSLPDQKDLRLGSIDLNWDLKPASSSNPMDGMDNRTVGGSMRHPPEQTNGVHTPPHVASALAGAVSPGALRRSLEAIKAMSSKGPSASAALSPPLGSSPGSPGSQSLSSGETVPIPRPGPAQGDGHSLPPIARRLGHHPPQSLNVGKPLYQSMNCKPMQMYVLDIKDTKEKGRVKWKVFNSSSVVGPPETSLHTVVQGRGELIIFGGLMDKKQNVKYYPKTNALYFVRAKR

Target: BirA*-tagged FBXO42 (F-Box Protein 42), full-length human (human) (UniProt Q6P3S6)
Test: proximity labelling; BioID: BirA*-tagged bait induced in HEK293 Flp-In T-REx cells, 50 uM biotin for 24 h, with or without 5 uM MG132; streptavidin-Sepharose purification and mass spectrometry

binding: binds
B1: CCDC6 (prey in HEK293 BioID) (protein, UniProt Q16204 1-474)
chain: MADSASESDTDGAGGNSSSSAAMQSSCSSTSGGGGGGGGGGGGGKSGGIVISPFRLEELTNRLASLQQENKVLKIELETYKLKCKALQEENRDLRKASVTIQARAEQEEEFISNTLFKKIQALQKEKETLAVNYEKEEEFLTNELSRKLMQLQHEKAELEQHLEQEQEFQVNKLMKKIKKLENDTISKQLTLEQLRREKIDLENTLEQEQEALVNRLWKRMDKLEAEKRILQEKLDQPVSAPPSPRDISMEIDSPENMMRHIRFLKNEVERLKKQLRAAQLQHSEKMAQYLEEERHMREENLRLQRKLQREMERREALCRQLSESESSLEMDDERYFNEMSAQGLRPRTVSSPIPYTPSPSSSRPISPGLSYASHTVGFTPPTSLTRAGMSYYNSPGLHVQHMGTSHGITRPSPRRSNSPDKFKRPTPPPSPNTQTPVQPPPPPPPPPMQPTVPSAATSQPTPSQHSAHPSSQP

No constants are given. Whether binding was seen depends on the method and setting. Binding seen in cells or lysates may run through a third protein. A yes stands for co-enrichment or nearness to the bait. Other partners may have been found.
